This is an account of results in publication doi:10.1101/2022.06.21.497044 (bioRxiv, 2022).

Results are given in words; binding and its absence hold for the method and conditions named. For some of these results: Binding seen in cells or lysates may run through a third protein. Some binding calls cover weakened binding; strength is not graded here. Where a sequence is shown, tags or fusion partners need not be part of it.

The target of assay [1] is T1, ABSCISIC ACID …5 (ABI5), full length, fused to the GAL4 DNA-binding domain (pGBKT7) (Arabidopsis thaliana) (UniProt Q9SJN0).
T1 sequence: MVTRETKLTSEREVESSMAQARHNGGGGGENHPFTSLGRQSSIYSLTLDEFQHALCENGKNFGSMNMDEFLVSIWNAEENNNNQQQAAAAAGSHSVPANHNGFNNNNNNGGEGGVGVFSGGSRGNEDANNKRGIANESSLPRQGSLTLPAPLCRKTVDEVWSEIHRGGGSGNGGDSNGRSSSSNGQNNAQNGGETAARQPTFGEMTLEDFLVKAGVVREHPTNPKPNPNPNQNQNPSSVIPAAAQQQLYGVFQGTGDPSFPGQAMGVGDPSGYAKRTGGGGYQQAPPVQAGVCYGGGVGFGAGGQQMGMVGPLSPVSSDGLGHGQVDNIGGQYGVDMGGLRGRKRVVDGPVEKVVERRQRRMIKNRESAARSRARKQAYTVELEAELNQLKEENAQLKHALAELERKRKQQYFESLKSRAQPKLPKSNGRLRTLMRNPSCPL
The assay is described as follows: two-hybrid.

Assay [2] concerns the target T2, ABI5, full length, fused to the N-terminal half of YFP (pCL112) (Arabidopsis thaliana) (UniProt Q9SJN0).
T2 sequence: T1 sequence
The assay is described as follows: split reporter.

B1: miP1a/BBX31, full length, fused to the GAL4 activation domain (pGADT7) (protein, UniProt Q9LRM4 1-121)
chain: MCRGLNNEESRRSDGGGCRSLCTRPSVPVRCELCDGDASVFCEADSAFLCRKCDRWVHGANFLAWRHVRRVLCTSCQKLTRRCLVGDHDFHVVLPSVTTVGETTVENRSEQDNHEVPFVFL
Consider B1, for which the binding entry in assay [1] is given as “binds”.

B2: YFPc-BBX31 (protein, UniProt Q9LRM4 1-121)
chain: B1 chain
In the case of B2, in assay [2], the binding result is reported as “binds”.

B3: miP1b/BBX30, full length, fused to the GAL4 activation domain (pGADT7) (protein, UniProt Q1G3I2 1-117)
chain: MCRGFEKEEERRSDNGGCQRLCTESHKAPVSCELCGENATVYCEADAAFLCRKCDRWVHSANFLARRHLRRVICTTCRKLTRRCLVGDNFNVVLPEIRMIARIEEHSSDHKIPFVFL
B3: the binding entry in assay [1] was “binds”.

B4: YFPc-BBX30 (protein, UniProt Q1G3I2 1-117)
chain: B3 chain
Consider B4, for which the binding entry in assay [2] was “binds”.
